This passage reports binding results from PMC6329795.

Common to all, as to experiment: proximity labelling; BioID in vivo: C-terminal BirA* fusions conditionally expressed in T. brucei, biotinylation induced for 24 h, labelled proteins purified and analysed by LC-MS/MS; estimated 10 nm labelling range
For test [1], the target named is T1, KPAP1 fusion with BirA* biotin ligase (Trypanosoma brucei) (UniProt B3FB38).
T1 sequence: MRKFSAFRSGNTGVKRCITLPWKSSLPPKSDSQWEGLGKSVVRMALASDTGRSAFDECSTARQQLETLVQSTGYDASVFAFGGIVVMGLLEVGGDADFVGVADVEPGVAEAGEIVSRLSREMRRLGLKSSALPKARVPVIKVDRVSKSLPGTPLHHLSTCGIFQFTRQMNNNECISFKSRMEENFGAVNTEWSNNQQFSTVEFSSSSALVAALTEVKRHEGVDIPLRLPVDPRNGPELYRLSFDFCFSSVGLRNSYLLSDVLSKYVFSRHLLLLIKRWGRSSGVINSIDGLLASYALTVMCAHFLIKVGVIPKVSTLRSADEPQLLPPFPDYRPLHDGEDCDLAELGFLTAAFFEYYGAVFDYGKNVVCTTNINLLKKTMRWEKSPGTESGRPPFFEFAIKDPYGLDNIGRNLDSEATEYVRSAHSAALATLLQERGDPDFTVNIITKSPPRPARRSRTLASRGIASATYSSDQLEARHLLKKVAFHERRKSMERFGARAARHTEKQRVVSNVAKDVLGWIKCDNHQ

For test [2], the target named is T2, GRBC2 fusion with BirA* biotin ligase (Trypanosoma brucei) (UniProt B6SBL9).
T2 sequence: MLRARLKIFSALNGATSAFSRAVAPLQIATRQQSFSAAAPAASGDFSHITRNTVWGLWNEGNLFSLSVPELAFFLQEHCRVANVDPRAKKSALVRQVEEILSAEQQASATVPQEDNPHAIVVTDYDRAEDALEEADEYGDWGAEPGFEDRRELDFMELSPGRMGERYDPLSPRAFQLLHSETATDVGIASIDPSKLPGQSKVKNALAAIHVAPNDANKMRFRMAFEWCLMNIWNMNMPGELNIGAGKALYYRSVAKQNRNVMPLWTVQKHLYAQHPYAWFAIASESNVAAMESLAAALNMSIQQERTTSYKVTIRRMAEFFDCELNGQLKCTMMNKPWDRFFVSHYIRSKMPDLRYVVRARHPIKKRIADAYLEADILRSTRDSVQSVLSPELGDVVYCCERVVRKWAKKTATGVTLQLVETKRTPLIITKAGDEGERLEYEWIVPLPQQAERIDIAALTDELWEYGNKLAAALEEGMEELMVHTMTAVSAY

Test [3] has as its target T3, MERS1 fusion with BirA* biotin ligase (Trypanosoma brucei) (UniProt B6SBM0).
T3 sequence: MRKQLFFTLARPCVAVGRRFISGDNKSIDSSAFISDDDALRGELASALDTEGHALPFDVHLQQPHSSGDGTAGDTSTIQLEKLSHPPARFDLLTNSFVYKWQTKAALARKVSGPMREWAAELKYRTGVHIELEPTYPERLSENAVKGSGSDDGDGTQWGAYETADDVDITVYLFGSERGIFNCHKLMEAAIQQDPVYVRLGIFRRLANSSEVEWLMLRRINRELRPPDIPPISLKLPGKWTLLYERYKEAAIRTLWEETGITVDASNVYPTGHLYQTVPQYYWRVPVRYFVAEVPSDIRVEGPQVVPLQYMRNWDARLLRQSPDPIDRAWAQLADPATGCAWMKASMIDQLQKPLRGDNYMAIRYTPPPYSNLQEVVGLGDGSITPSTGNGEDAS

These are yes or no findings as the source states them, for the method shown. Binding seen in cells or lysates may run through a third protein. Here binding means that the protein was enriched with, or labelled near, the bait; the list need not be complete. Tags and fused reporters may be left off the sequences shown.

Turning to “subunit P4 of the polyadenylation mediator module (PAMC)”, the binding result in test [1] was “binds”.

With “MRP2 (MRP1/2 RNA chaperone complex) (Trypanosoma brucei)”, the binding result in test [2], in test [1] and in test [3] was “binds” in each case.

As to “subunit P3 of the polyadenylation mediator module (PAMC)”, in test [1], the binding entry was “binds”.
